# Reference: the supplement of paper PMC12067093, “Discovery and optimisation of a covalent ligand for TRIM25 and its application to targeted protein ubiquitination” (Chemical Science, 2025)
# Chains of the proteins cited; added tags and fusions are not shown. Lines headed by an entry give the natural chain unless they say otherwise; changes in a name come on top.
# UniProt Q9UJX4, whole entry, looked up: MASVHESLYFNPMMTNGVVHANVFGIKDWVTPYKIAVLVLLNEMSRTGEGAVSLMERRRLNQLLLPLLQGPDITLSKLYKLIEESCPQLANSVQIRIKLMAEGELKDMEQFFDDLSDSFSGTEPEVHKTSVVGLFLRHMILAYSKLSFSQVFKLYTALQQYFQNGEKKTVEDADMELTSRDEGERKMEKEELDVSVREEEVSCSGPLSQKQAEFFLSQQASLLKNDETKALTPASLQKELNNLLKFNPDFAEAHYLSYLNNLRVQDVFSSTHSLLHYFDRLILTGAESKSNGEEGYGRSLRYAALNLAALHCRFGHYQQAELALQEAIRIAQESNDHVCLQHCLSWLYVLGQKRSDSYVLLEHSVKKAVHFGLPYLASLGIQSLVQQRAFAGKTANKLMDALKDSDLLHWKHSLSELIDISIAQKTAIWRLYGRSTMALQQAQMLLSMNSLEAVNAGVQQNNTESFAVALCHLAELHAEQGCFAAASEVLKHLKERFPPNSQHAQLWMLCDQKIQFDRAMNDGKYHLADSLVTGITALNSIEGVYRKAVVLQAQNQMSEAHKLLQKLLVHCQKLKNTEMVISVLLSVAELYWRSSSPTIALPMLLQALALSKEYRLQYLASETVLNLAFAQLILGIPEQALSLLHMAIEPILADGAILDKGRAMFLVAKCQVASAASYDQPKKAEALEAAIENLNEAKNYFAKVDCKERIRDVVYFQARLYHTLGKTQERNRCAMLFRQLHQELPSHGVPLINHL
# UniProt P54886: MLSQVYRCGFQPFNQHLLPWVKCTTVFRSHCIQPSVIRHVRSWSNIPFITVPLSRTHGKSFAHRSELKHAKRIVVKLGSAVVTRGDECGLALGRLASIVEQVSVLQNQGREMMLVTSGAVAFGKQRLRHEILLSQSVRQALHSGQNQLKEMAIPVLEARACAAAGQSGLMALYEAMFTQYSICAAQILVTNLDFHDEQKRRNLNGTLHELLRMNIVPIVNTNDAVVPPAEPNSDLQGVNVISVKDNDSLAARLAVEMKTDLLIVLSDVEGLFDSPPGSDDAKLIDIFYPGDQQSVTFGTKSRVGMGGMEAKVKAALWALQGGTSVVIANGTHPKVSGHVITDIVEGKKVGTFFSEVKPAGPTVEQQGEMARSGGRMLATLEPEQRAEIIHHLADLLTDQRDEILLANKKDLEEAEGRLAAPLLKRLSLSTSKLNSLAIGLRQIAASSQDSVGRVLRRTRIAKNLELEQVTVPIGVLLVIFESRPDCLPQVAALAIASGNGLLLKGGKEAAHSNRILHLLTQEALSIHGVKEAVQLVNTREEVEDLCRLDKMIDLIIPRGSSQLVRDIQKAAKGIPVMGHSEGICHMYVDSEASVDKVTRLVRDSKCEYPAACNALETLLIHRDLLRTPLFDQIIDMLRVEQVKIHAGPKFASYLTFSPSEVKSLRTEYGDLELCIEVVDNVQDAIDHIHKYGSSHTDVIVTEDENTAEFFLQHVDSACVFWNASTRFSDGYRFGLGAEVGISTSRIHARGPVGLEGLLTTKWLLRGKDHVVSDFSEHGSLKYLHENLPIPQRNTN
# UniProt P35573: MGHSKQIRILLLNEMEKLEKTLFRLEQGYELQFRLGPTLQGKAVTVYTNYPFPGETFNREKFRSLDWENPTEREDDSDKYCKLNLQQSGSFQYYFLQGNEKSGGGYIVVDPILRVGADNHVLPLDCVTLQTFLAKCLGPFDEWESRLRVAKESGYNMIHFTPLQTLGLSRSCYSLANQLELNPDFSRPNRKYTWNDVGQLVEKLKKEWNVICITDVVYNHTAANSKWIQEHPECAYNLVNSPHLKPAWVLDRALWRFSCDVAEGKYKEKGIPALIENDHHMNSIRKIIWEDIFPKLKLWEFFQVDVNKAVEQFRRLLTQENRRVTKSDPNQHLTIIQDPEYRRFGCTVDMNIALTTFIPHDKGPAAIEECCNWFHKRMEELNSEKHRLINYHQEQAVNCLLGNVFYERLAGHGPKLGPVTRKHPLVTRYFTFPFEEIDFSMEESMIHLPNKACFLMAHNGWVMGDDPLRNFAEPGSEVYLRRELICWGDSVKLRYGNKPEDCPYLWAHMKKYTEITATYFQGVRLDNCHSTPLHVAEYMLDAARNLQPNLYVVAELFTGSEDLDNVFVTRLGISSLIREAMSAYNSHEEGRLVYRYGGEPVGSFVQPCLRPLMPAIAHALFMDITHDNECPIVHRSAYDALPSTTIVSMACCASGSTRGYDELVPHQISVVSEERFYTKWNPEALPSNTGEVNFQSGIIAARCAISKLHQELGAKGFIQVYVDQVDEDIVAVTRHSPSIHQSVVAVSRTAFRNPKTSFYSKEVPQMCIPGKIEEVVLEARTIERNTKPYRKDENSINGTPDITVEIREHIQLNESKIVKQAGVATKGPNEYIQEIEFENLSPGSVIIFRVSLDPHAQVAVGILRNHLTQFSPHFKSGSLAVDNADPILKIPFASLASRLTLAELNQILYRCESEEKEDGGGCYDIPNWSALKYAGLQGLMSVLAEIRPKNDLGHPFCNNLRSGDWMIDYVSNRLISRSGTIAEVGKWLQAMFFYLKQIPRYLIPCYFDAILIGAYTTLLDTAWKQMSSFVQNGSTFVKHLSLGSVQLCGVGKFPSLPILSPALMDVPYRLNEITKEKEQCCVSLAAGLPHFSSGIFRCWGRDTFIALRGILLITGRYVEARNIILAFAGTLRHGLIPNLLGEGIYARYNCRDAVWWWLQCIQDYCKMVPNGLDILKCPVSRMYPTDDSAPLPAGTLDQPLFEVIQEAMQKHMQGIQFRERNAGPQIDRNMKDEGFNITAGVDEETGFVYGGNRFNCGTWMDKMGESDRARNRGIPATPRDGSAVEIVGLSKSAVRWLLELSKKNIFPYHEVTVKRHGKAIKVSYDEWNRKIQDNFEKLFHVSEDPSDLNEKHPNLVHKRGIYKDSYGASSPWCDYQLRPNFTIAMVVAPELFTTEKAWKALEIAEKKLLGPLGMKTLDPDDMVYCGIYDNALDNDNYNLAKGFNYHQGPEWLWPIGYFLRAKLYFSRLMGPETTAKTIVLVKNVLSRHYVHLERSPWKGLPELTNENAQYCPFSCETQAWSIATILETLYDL
# UniProt P04075: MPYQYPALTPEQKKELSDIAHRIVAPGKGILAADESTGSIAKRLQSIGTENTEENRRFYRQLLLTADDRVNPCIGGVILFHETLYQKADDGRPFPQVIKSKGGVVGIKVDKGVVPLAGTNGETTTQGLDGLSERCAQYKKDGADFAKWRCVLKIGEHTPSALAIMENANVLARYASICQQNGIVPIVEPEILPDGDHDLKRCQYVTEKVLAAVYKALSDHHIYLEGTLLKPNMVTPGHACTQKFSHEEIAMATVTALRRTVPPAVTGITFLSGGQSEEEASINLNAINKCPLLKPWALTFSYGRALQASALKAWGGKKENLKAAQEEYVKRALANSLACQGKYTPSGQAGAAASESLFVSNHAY
# UniProt Q9UM13, whole entry, looked up: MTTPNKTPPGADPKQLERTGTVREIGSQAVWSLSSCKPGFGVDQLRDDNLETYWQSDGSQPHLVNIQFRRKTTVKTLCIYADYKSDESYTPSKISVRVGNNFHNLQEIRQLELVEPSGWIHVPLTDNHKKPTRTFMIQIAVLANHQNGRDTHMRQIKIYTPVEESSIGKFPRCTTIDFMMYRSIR
# UniProt O00170: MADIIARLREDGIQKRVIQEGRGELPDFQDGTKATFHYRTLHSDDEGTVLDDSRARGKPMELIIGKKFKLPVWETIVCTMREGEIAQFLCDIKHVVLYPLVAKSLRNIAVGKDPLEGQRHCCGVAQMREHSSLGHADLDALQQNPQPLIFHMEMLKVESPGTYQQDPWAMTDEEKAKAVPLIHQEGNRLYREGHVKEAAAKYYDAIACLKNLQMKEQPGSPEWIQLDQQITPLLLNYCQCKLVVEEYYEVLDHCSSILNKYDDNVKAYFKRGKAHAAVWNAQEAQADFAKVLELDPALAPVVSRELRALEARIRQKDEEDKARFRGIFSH
# UniProt Q9NXW9: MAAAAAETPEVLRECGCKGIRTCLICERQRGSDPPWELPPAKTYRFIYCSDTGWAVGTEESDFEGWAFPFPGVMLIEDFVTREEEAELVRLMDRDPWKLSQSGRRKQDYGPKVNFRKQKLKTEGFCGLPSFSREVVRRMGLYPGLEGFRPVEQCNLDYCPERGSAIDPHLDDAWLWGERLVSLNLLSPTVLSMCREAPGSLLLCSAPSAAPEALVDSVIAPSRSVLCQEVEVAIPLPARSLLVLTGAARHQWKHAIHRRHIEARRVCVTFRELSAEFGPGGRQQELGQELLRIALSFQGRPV
# UniProt Q9UHK6: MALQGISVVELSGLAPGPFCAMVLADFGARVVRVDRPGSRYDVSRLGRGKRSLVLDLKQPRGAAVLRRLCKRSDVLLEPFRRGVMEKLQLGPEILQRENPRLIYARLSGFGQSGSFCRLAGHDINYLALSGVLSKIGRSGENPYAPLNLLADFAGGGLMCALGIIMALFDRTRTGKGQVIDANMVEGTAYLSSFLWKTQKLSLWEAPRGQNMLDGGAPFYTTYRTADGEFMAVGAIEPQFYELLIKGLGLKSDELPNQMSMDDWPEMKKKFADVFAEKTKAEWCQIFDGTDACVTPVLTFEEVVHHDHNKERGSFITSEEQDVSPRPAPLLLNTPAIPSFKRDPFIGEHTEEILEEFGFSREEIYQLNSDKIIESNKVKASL
# UniProt P49189: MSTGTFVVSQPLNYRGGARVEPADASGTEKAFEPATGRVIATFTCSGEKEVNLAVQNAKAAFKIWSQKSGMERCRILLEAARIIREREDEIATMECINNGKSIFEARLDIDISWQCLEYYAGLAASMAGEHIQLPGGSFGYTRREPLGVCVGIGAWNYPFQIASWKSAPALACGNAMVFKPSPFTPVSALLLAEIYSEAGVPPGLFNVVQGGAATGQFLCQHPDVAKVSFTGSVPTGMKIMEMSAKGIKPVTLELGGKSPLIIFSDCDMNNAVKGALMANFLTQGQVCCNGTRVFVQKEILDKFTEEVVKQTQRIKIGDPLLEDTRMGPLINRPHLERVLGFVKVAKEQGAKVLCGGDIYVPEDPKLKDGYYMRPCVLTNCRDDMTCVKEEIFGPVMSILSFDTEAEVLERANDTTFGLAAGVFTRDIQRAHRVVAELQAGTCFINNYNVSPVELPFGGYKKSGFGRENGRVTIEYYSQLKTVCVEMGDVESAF
# UniProt P42330: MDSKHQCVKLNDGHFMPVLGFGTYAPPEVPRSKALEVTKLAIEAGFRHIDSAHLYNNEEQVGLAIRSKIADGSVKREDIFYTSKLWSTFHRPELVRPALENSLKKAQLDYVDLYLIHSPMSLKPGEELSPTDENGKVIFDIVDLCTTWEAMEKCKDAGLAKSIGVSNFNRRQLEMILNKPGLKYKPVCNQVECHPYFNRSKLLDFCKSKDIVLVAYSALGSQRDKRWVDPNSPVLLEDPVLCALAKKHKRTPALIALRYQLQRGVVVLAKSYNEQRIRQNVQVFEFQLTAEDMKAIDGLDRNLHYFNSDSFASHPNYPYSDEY
# UniProt P05091: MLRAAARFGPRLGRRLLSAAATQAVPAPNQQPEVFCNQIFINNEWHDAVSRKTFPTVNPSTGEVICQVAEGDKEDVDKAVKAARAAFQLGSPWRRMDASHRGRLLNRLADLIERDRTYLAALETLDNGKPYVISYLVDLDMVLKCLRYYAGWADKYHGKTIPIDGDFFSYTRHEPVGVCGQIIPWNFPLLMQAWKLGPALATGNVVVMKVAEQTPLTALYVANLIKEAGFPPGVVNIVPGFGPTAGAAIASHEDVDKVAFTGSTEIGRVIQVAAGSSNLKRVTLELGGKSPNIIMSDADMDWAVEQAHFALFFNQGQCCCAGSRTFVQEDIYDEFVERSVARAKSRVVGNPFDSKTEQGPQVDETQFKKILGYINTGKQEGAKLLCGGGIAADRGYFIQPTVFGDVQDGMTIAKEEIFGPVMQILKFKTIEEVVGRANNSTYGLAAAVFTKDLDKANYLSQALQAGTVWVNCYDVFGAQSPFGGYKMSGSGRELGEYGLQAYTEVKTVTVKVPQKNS
# UniProt P30038: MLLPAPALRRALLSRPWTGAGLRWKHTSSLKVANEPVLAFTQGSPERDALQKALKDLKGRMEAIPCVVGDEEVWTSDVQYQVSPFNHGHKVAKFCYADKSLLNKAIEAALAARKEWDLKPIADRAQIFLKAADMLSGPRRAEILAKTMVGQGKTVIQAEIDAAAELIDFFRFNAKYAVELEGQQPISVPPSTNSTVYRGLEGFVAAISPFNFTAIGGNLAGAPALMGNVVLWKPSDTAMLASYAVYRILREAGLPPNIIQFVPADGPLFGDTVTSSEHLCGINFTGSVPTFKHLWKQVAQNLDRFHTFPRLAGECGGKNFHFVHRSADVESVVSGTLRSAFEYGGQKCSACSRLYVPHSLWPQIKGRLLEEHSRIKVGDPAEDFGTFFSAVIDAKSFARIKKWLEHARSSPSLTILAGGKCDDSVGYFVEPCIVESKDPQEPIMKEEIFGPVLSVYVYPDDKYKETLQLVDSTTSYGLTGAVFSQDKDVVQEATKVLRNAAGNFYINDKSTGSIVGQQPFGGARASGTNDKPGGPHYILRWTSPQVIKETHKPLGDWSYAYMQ
# This is one part of the list.
# Compound: CC1Cc2ccccc2N1C(=O)C1CCCN(C1)C(=O)CCl (mixture of isomers) [TRIM25 ligand 11 (diastereomer mixture)]
# Experiment: probe-labelled cysteine peptide fold change vs DMSO (competition) (log2 fold change); higher = less target engagement (more negative = stronger competition)
# Details: 10 µM; THP-1; incubation time: 4 h
# 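Note: competitive chemoproteomic profiling in live THP-1 cells with an iodoacetamide desthiobiotin (IA-DTB) probe, comparing probe-labelled peptide intensities in compound-treated cells against DMSO-treated controls.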
row,Target,probe-labelled cysteine peptide fold change
1,AHCYL1_O43865_392+395_NSCIVCNMGHSNTEIDVTSLR (UniProt O43865),-0.122
2,ANAPC5_Q9UJX4_203_EEEVSCSGPLSQK (UniProt Q9UJX4),0.0518
3,ALDH18A1_P54886_674_TEYGDLELCIEVVDNVQDAIDHIHK (UniProt P54886),0.122
4,AKR7A2_O43488_132_LQCPQVDLFYLHAPDHGTPVEETLHACQR (UniProt O43488),0.0379
5,AKR1B1_P15121_81_LWCTYHEK (UniProt P15121),0.0955
6,AGL_P35573_767_EVPQMCIPGKIEEVVLEAR (UniProt P35573),-0.407
7,AGL_P35573_767_EVPQMCIPGK (UniProt P35573),0.049
8,ALDOA_P04075_178_YASICQQNGIVPIVEPEILPDGDHDLK (UniProt P04075),0.162
9,ANAPC10_Q9UM13_173_CTTIDFMMYR (UniProt Q9UM13),-0.00282
10,AIP_O00170_121_HCCGVAQMR (UniProt O00170),-0.0524
11,ALKBH4_Q9NXW9_227_SVLCQEVEVAIPLPAR (UniProt Q9NXW9),-0.159
12,ALDOA_P04075_240_PNMVTPGHACTQK (UniProt P04075),0.139
13,AMACR_Q9UHK6_117_LSGFGQSGSFCR (UniProt Q9UHK6),0.105
14,AGPAT5_Q9NUQ2_217_ATHVAFDCMK (UniProt Q9NUQ2),0.051
15,ALDH9A1_P49189_289_GALMANFLTQGQVCCNGTR (UniProt P49189),-0.0386
16,AKAP8_O43823_395_IQFACSVCK (UniProt O43823),-0.0931
17,ANAPC4_Q9UJX5_697_LDEQCSAIPTR (UniProt Q9UJX5),0.138
18,ANGEL2_Q5VTE6_305_IPYAACPAICVANTHLLYNPR (UniProt Q5VTE6),-0.0433
19,ALDH18A1_P54886_546_EAVQLVNTREEVEDLCR (UniProt P54886),0.16

row,Target,probe-labelled cysteine peptide fold change
1,ALDH1L2_Q3SY69_683_SCAVSNLK (UniProt Q3SY69),0.0456
2,ALS2_Q96Q42_916_LLCESSNR (UniProt Q96Q42),-0.0868
3,ALDH1B1_P30837_169_TIPMDGQHFCFTR (UniProt P30837),-0.0255
4,AGL_P35573_528_LDNCHSTPLHVAEYMLDAAR (UniProt P35573),0.0558
5,AKAP9_Q99996_1367_ETEQNYEAEIHCLQK (UniProt Q99996),-0.0395
6,AKR7A2_O43488_132+156_LQCPQVDLFYLHAPDHGTPVEETLHACQR (UniProt O43488),0.0707
7,AKAP9_Q99996_2125_CSELLLSK (UniProt Q99996),-0.159
8,AKR1C3_P42330_242_WVDPNSPVLLEDPVLCALAK (UniProt P42330),0.0488
9,AMPD2_Q01433_310_TYEQGPDTPVSADAPVHPPALEQHPYEHCEPSTMPGDLGLGLR (UniProt Q01433),0.124
10,ANKFY1_Q9P2R3_1060_GNANLCR (UniProt Q9P2R3),-0.1
11,ALAS1_P13196_124_GSSVFCK (UniProt P13196),0.142
12,ALDH2_P05091_66_KTFPTVNPSTGEVICQVAEGDKEDVDK (UniProt P05091),-0.122
13,ALG2_Q9H553_59_IWTAHYDPGHCFAESR (UniProt Q9H553),0.0186
14,ALDH4A1_P30038_315_LAGECGGK (UniProt P30038),-0.132
15,ALDH7A1_P49419_522_STCTINYSK (UniProt P49419),0.173
16,ALCAM_Q13740_313_CSLIDKK (UniProt Q13740),-0.0402
17,AIDA_Q96BJ3_69_IATCLELR (UniProt Q96BJ3),-0.102
18,AKR7A2_O43488_132+156_RLQCPQVDLFYLHAPDHGTPVEETLHACQR (UniProt O43488),-0.17
19,ALDH9A1_P49189_150_REPLGVCVGIGAWNYPFQIASWK (UniProt P49189),-0.154
